Results are given in words; binding and its absence hold for the method and conditions named. Some entries that bind do so weakly or less than the wild type.

Our source for the binding values is patent publication EP3381935A1 (Tigo GmbH, dated 2018).

Assay [1] has as its target T1, recombinant hIFN-γ receptor (the extracellular part of the IFNGR1) (human) (UniProt P15260).
T1 sequence (looked up): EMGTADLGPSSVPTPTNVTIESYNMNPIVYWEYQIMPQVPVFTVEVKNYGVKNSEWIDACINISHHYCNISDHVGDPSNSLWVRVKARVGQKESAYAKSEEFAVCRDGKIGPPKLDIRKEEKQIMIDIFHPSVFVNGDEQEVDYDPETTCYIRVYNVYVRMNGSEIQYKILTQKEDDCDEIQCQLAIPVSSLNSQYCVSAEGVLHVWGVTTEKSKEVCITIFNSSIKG
Kind of assay: SPR. On the technique in general: Surface plasmon resonance follows binding to a sensor surface in real time, without labels.

The target of assay [2] is T1, recombinant hIFN-γ receptor (the extracellular part of the IFNGR1) (human). Kind of assay: ITC. On the technique in general: In ITC the heat of successive injections is recorded.
The target is the same in assay [3]. The experiment in a line: SPR, summary.

B1: K88Q (138 aa) (ligand, human, UniProt P01579 24-161, looked up)
chain: QDPYVKEAENLKKYFNAGHSDVADNGTLFLGILKNWKEESDRKIMQSQIVSFYFKLFKNFKDDQSIQKSVETIKEDMNVKFFNSNKKQRDDFEKLTNYSVTDLNVQRKAIHELIQVMAELSPAAKTGKRKRSQMLFRG
notes: range 1-138; also called Control 3: K88Q(138 aa); Control 2: K88Q
As to B1, the binding entry in assay [1] and in assay [2] was “binds” each time.

B2: anti-gamma mutant protein K88Q_D41N (138 aa) (ligand)
chain: QDPYVKEAENLKKYFNAGHSDVADNGTLFLGILKNWKEESNRKIMQSQIVSFYFKLFKNFKDDQSIQKSVETIKEDMNVKFFNSNKKQRDDFEKLTNYSVTDLNVQRKAIHELIQVMAELSPAAKTGKRKRSQMLFRG
For the molecule B2, the binding entry in assay [3] and in assay [1] was “binds” in each case.
